Four molecules from publication PMC7862307 can be followed below.

Protein sequences, listed by entry. Tags and fused reporters are not part of them.
UniProt Q9NPD8: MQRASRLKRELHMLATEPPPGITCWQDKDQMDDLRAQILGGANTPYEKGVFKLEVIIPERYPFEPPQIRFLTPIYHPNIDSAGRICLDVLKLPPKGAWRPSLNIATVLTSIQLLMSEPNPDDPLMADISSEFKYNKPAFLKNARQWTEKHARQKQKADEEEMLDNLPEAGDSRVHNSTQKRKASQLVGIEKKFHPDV

Results are given in words; binding and its absence hold for the method and conditions named. In cells and extracts the contact can be indirect. A yes stands for co-enrichment or nearness to the bait. Other partners may have been found.

The labels stand for the following.
B1: FANCL (protein, UniProt Q9NW38 1-375)
chain: MAVTEASLLRQCPLLLPQNRSKTVYEGFISAQGRDFHLRIVLPEDLQLKNARLLCSWQLRTILSGYHRIVQQRMQHSPDLMSFMMELKMLLEVALKNRQELYALPPPPQFYSSLIEEIGTLGWDKLVYADTCFSTIKLKAEDASGREHLITLKLKAKYPAESPDYFVDFPVPFCASWTPQSSLISIYSQFLAAIESLKAFWDVMDEIDEKTWVLEPEKPPRSATARRIALGNNVSINIEVDPRHPTMLPECFFLGADHVVKPLGIKLSRNIHLWDPENSVLQNLKDVLEIDFPARAILEKSDFTMDCGICYAYQLDGTIPDQVCDNSQCGQPFHQICLYEWLRGLLTSRQSFNIIFGECPYCSKPITLKMSGRKH
B2: FANCB (protein, UniProt Q8NB91 1-859)
chain: MTSKQAMSSNEQERLLCYNGEVLVFQLSKGNFADKEPTKTPILHVRRMVFDRGTKVFVQKSTGFFTIKEENSHLKIMCCNCVSDFRTGINLPYIVIEKNKKNNVFEYFLLILHSTNKFEMRLSFKLGYEMKDGLRVLNGPLILWRHVKAFFFISSQTGKVVSVSGNFSSIQWAGEIENLGMVLLGLKECCLSEEECTQEPSKSDYAIWNTKFCVYSLESQEVLSDIYIIPPAYSSVVTYVHICATEIIKNQLRISLIALTRKNQLISFQNGTPKNVCQLPFGDPCAVQLMDSGGGNLFFVVSFISNNACAVWKESFQVAAKWEKLSLVLIDDFIGSGTEQVLLLFKDSLNSDCLTSFKITDLGKINYSSEPSDCNEDDLFEDKQENRYLVVPPLETGLKVCFSSFRELRQHLLLKEKIISKSYKALINLVQGKDDNTSSAEEKECLVPLCGEEENSVHILDEKLSDNFQDSEQLVEKIWYRVIDDSLVVGVKTTSSLKLSLNDVTLSLLMDQAHDSRFRLLKCQNRVIKLSTNPFPAPYLMPCEIGLEAKRVTLTPDSKKEESFVCEHPSKKECVQIITAVTSLSPLLTFSKFCCTVLLQIMERESGNCPKDRYVVCGRVFLSLEDLSTGKYLLTFPKKKPIEHMEDLFALLAAFHKSCFQITSPGYALNSMKVWLLEHMKCEIIKEFPEVYFCERPGSFYGTLFTWKQRTPFEGILIIYSRNQTVMFQCLHNLIRILPINCFLKNLKSGSENFLIDNMAFTLEKELVTLSSLSSAIAKHESNFMQRCEVSKGKSSVVAAALSDRRENIHPYRKELQREKKKMLQTNLKVSGALYREITLKVAEVQLKSDFAAQKLSNL
B3: FANCG (protein, UniProt O15287 1-622)
chain: MSRQTTSVGSSCLDLWREKNDRLVRQAKVAQNSGLTLRRQQLAQDALEGLRGLLHSLQGLPAAVPVLPLELTVTCNFIILRASLAQGFTEDQAQDIQRSLERVLETQEQQGPRLEQGLRELWDSVLRASCLLPELLSALHRLVGLQAALWLSADRLGDLALLLETLNGSQSGASKDLLLLLKTWSPPAEELDAPLTLQDAQGLKDVLLTAFAYRQGLQELITGNPDKALSSLHEAASGLCPRPVLVQVYTALGSCHRKMGNPQRALLYLVAALKEGSAWGPPLLEASRLYQQLGDTTAELESLELLVEALNVPCSSKAPQFLIEVELLLPPPDLASPLHCGTQSQTKHILASRCLQTGRAGDAAEHYLDLLALLLDSSEPRFSPPPSPPGPCMPEVFLEAAVALIQAGRAQDALTLCEELLSRTSSLLPKMSRLWEDARKGTKELPYCPLWVSATHLLQGQAWVQLGAQKVAISEFSRCLELLFRATPEEKEQGAAFNCEQGCKSDAALQQLRAAALISRGLEWVASGQDTKALQDFLLSVQMCPGNRDTYFHLLQTLKRLDRRDEATALWWRLEAQTKGSHEDALWSLPLYLESYLSWIRPSDRDAFLEEFRTSLPKSCDL
B4: FANCA (protein, UniProt O15360 1-1455)
chain: MSDSWVPNSASGQDPGGRRRAWAELLAGRVKREKYNPERAQKLKESAVRLLRSHQDLNALLLEVEGPLCKKLSLSKVIDCDSSEAYANHSSSFIGSALQDQASRLGVPVGILSAGMVASSVGQICTAPAETSHPVLLTVEQRKKLSSLLEFAQYLLAHSMFSRLSFCQELWKIQSSLLLEAVWHLHVQGIVSLQELLESHPDMHAVGSWLFRNLCCLCEQMEASCQHADVARAMLSDFVQMFVLRGFQKNSDLRRTVEPEKMPQVTVDVLQRMLIFALDALAAGVQEESSTHKIVRCWFGVFSGHTLGSVISTDPLKRFFSHTLTQILTHSPVLKASDAVQMQREWSFARTHPLLTSLYRRLFVMLSAEELVGHLQEVLETQEVHWQRVLSFVSALVVCFPEAQQLLEDWVARLMAQAFESCQLDSMVTAFLVVRQAALEGPSAFLSYADWFKASFGSTRGYHGCSKKALVFLFTFLSELVPFESPRYLQVHILHPPLVPGKYRSLLTDYISLAKTRLADLKVSIENMGLYEDLSSAGDITEPHSQALQDVEKAIMVFEHTGNIPVTVMEASIFRRPYYVSHFLPALLTPRVLPKVPDSRVAFIESLKRADKIPPSLYSTYCQACSAAEEKPEDAALGVRAEPNSAEEPLGQLTAALGELRASMTDPSQRDVISAQVAVISERLRAVLGHNEDDSSVEISKIQLSINTPRLEPREHMAVDLLLTSFCQNLMAASSVAPPERQGPWAALFVRTMCGRVLPAVLTRLCQLLRHQGPSLSAPHVLGLAALAVHLGESRSALPEVDVGPPAPGAGLPVPALFDSLLTCRTRDSLFFCLKFCTAAISYSLCKFSSQSRDTLCSCLSPGLIKKFQFLMFRLFSEARQPLSEEDVASLSWRPLHLPSADWQRAALSLWTHRTFREVLKEEDVHLTYQDWLHLELEIQPEADALSDTERQDFHQWAIHEHFLPESSASGGCDGDLQAACTILVNALMDFHQSSRSYDHSENSDLVFGGRTGNEDIISRLQEMVADLELQQDLIVPLGHTPSQEHFLFEIFRRRLQALTSGWSVAASLQRQRELLMYKRILLRLPSSVLCGSSFQAEQPITARCEQFFHLVNSEMRNFCSHGGALTQDITAHFFRGLLNACLRSRDPSLMVDFILAKCQTKCPLILTSALVWWPSLEPVLLCRWRRHCQSPLPRELQKLQEGRQFASDFLSPEAASPAPNPDWLSAAALHFAIQQVREENIRKQLKKLDCEREELLVFLFFFSLMGLLSSHLTSNSTTDLPKAFHVCAAILECLEKRKISWLALFQLTESDLRLGRLLLRVAPDQHTRLLPFAFYSLLSYFHEDAAIREEAFLHVAVDMYLKLVQLFVAGDTSTVSPPAGRSLELKGQGNPVELITKARLFLLQLIPRCPKKSFSHVAELLADRGDCDPEVSAALQSRQQAAPDADLSQEPHLF

The target in this experiment is SFB-UBE2T (ubiquitin-conjugating enzyme E2 T), stable clone in HEK293T (UniProt Q9NPD8). Put plainly: affinity purification with mass spectrometry; tandem affinity purification from HEK293T stable clones of SFB-UBE2T: NETN lysate, streptavidin beads 4 h at 4 °C, elution with 2 mg/ml biotin, S protein agarose 3 h, eluate to LC/MS/MS.
Take B1: the binding result is “binds”. As for B2, the binding entry was “binds”.

With B3, the binding entry was “binds”.

As to B4, the binding entry is reported as “binds”.
